From article PMC10909764 come the findings set out here.

Protein sequences, listed by entry. Tags and fused reporters are not part of them. Lines headed by an entry give the natural chain unless they say otherwise; changes in a name come on top.
UniProt P11717: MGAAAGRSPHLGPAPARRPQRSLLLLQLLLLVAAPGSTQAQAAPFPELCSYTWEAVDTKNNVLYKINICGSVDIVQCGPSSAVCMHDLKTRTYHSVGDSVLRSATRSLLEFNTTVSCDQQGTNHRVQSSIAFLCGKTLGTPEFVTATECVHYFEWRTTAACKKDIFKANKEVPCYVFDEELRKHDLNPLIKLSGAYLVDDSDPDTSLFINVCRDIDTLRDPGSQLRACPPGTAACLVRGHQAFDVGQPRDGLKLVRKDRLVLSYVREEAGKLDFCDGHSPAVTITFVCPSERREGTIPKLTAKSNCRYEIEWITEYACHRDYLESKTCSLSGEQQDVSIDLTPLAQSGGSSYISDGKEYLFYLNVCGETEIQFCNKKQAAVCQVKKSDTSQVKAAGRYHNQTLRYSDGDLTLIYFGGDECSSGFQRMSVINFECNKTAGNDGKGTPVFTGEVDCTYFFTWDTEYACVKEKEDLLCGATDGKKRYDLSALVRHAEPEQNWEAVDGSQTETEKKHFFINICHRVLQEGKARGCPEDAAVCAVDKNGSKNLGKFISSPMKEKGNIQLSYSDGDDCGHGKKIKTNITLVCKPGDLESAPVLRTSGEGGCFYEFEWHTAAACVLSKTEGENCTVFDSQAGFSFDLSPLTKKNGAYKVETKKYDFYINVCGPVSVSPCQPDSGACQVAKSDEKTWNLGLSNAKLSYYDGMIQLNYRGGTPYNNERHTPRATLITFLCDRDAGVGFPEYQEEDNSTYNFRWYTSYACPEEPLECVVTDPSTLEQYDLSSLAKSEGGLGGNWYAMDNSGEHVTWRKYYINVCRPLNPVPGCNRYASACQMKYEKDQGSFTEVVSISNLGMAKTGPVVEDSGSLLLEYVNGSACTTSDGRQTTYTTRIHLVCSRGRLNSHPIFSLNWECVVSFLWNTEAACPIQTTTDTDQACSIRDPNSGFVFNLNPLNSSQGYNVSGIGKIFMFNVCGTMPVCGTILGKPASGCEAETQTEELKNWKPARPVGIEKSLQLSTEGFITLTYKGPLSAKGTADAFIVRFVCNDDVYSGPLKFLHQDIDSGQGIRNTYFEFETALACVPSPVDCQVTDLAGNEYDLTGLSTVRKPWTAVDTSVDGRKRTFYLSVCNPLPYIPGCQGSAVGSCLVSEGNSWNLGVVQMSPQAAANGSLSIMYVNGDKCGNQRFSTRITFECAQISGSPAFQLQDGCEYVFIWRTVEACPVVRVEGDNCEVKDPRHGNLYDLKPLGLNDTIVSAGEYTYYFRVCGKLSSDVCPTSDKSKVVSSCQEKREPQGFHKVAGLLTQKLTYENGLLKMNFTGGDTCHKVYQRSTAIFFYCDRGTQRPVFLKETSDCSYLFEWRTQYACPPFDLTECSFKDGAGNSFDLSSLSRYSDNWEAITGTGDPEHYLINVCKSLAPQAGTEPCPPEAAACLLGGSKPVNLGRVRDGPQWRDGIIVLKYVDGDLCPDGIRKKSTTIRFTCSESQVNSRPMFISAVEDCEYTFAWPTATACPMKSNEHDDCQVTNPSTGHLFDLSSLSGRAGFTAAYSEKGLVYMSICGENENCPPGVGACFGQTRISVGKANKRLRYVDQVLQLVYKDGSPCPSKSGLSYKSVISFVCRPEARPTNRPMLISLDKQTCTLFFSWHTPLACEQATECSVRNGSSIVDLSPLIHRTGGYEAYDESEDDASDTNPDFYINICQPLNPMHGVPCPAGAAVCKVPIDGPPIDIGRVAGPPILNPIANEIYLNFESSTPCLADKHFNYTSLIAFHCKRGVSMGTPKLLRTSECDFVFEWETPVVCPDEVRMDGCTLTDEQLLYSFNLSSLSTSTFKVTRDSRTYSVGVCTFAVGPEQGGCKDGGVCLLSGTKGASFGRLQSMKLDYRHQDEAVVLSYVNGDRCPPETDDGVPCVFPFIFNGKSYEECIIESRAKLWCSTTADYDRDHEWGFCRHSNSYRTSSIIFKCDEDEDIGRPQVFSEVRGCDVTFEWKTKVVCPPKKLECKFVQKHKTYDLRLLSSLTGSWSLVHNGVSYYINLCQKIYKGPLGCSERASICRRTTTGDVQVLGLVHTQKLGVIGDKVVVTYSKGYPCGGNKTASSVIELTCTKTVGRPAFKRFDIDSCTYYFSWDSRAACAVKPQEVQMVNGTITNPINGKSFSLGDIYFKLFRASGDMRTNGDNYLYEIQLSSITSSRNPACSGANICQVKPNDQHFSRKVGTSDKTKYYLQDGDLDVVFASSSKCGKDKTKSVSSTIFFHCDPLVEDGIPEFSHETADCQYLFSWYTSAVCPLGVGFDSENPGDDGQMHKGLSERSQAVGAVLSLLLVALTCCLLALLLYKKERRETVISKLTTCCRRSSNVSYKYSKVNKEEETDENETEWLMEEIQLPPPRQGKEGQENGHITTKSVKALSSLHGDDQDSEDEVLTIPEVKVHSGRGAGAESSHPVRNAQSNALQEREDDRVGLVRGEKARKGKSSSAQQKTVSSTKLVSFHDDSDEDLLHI

The target of the test is CI-MPR cytosolic tail (CI-MPR_CT) (UniProt P11717). The test is described as follows: two-hybrid; yeast AH109; Gal4-AD fusions of μ subunits (pACT2) against Gal4-BD fusions of cytosolic tails (pBridge, pGBT9); growth on medium lacking leucine, tryptophan and histidine.

These are yes or no findings as the source states them, for the method shown. Binding calls can cover weak binding; strength is not graded here. Sequences can lack the tags named with a protein.

B1: C-terminal domain of human μ1B (residues 137–423), Gal4-AD fusion (domain or fragment, UniProt Q9Y6Q5 137-423)
chain: QQSNKLETGKSRVPPTVTNAVSWRSEGIKYKKNEVFIDVIESVNLLVNANGSVLLSEIVGTIKLKVFLSGMPELRLGLNDRVLFELTGRSKNKSVELEDVKFHQCVRLSRFDNDRTISFIPPDGDFELMSYRLSTQVKPLIWIESVIEKFSHSRVEIMVKAKGQFKKQSVANGVEISVPVPSDADSPRFKTSVGSAKYVPERNVVIWSIKSFPGGKEYLMRAHFGLPSVEKEEVEGRPPIGVKFEIPYFTVSGIQVRYMKIIEKSGYQALPWVRYITQSGDYQLRTS
Turning to B1, the binding entry was “binds”.
